Measured values: the supplement of paper PMC12067093, “Discovery and optimisation of a covalent ligand for TRIM25 and its application to targeted protein ubiquitination” (Chemical Science, 2025)
Some of the results follow.

The chains behind the UniProt entries cited, without tags or fusion partners. Where a name states a change or a piece, a line headed by the entry shows the natural chain unless it says otherwise.
UniProt Q92598: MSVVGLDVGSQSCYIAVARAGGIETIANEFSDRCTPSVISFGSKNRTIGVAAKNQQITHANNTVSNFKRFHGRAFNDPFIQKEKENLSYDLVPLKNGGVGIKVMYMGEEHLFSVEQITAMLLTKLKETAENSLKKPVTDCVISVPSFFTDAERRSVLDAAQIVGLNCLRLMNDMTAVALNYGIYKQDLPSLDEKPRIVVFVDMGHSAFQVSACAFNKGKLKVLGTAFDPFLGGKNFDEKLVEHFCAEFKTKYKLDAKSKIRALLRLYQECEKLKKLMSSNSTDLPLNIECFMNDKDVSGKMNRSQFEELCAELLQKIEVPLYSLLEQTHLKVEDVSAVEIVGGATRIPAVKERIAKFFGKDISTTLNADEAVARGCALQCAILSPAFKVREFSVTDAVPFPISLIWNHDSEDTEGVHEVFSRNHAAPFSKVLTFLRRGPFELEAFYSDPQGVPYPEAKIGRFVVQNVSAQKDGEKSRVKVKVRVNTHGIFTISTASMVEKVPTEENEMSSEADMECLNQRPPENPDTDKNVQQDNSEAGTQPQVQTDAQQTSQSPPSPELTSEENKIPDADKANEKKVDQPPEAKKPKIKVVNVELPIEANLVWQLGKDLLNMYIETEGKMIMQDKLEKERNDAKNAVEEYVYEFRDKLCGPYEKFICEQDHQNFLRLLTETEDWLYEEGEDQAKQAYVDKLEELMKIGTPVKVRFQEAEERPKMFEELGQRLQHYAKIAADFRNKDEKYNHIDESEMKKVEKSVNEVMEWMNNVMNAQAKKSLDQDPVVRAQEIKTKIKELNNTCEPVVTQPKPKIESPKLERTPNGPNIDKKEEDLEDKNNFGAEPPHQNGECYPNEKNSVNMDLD
UniProt Q99714: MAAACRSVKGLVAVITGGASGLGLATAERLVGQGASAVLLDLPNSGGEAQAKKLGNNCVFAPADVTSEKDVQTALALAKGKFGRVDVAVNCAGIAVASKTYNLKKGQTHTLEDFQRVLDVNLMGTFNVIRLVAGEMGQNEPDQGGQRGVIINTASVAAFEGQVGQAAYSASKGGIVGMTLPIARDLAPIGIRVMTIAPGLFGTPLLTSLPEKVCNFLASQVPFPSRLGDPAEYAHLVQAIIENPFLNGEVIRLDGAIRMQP
UniProt O95757: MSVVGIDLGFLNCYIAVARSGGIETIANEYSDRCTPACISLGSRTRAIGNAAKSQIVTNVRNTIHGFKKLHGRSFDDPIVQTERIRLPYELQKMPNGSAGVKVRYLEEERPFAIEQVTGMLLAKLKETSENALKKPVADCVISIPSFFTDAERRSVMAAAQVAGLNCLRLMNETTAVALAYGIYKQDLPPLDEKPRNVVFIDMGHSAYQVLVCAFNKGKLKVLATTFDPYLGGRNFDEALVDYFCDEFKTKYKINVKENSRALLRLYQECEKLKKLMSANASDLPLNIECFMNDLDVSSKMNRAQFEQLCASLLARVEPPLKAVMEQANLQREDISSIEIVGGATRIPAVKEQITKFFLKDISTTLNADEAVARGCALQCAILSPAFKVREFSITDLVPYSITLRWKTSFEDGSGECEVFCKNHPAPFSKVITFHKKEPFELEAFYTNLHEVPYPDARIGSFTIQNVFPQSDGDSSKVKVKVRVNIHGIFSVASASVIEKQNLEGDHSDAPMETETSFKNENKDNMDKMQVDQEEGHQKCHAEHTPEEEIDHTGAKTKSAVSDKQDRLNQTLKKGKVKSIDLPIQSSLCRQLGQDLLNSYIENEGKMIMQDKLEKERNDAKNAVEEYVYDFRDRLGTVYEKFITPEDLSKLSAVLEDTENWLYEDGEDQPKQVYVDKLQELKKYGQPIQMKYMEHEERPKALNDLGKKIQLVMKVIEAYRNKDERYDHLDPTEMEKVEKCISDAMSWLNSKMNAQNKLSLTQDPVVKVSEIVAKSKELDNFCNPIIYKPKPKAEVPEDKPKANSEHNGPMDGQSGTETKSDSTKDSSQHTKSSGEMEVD
UniProt Q9NZL4: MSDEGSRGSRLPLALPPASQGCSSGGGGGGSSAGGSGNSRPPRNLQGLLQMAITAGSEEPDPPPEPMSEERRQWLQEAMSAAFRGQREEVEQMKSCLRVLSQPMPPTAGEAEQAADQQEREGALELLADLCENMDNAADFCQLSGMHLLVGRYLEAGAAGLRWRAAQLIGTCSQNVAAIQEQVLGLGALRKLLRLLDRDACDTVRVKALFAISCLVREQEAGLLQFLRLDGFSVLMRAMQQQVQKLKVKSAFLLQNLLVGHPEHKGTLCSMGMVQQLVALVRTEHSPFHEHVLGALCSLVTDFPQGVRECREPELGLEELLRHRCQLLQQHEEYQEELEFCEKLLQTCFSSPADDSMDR
UniProt Q969F9: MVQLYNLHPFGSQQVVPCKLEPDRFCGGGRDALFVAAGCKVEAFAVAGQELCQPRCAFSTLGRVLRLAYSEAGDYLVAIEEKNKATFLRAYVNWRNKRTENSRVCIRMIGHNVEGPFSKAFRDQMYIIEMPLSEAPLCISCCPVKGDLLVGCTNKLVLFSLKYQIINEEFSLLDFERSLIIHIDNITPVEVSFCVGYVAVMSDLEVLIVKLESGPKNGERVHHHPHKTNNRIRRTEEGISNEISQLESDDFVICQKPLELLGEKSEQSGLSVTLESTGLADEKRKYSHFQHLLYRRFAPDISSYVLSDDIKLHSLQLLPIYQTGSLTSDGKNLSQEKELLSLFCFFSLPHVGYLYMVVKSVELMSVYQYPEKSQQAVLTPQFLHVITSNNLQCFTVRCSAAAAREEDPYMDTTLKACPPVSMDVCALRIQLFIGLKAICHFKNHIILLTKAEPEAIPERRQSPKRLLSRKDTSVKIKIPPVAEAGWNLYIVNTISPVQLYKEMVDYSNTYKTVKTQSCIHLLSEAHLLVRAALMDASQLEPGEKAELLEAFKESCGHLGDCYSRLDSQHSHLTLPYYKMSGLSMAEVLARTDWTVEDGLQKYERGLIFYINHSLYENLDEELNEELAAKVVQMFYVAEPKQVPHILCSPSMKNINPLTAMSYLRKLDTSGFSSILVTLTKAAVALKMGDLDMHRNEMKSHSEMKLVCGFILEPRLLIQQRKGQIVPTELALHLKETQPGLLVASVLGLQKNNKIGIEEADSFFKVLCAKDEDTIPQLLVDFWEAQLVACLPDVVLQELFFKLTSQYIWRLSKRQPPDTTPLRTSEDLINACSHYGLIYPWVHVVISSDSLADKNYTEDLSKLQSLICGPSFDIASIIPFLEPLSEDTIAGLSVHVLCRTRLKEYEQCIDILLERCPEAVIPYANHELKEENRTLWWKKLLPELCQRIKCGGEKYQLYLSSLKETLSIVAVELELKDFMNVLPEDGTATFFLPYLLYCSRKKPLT
UniProt Q00613: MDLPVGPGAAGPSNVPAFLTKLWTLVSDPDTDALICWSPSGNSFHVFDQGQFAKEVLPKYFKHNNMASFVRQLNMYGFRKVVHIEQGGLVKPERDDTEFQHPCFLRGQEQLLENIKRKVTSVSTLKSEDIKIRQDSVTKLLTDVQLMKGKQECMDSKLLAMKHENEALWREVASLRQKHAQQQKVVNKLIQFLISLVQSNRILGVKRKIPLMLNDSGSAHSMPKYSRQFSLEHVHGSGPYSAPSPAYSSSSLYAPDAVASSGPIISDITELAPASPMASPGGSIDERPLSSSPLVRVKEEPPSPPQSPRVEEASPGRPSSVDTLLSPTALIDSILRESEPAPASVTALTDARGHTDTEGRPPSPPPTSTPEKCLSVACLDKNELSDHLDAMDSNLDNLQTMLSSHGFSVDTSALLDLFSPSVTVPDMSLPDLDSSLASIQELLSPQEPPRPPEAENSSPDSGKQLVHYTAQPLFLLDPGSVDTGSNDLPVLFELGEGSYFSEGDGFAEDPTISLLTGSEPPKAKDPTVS
UniProt Q53GQ0: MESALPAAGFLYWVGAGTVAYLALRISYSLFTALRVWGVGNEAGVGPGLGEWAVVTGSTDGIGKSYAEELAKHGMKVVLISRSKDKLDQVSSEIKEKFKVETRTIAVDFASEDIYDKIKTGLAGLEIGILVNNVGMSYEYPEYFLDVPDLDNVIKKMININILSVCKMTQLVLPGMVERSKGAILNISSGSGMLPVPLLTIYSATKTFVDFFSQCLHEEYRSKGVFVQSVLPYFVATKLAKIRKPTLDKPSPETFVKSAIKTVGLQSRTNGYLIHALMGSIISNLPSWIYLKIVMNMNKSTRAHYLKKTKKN
UniProt Q0VDF9: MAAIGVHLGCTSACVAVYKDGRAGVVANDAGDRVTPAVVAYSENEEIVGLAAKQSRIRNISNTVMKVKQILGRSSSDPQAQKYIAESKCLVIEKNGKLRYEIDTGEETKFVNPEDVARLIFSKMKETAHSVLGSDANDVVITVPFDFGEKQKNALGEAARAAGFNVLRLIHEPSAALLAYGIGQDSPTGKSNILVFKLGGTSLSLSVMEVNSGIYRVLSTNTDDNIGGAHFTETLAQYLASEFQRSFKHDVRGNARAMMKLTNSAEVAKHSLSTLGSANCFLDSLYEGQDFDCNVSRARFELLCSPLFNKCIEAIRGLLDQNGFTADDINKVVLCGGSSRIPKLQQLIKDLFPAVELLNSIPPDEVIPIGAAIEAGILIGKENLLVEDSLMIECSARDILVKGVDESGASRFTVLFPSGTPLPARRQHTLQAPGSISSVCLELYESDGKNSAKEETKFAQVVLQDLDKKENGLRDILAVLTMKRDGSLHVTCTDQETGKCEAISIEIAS
UniProt P31943: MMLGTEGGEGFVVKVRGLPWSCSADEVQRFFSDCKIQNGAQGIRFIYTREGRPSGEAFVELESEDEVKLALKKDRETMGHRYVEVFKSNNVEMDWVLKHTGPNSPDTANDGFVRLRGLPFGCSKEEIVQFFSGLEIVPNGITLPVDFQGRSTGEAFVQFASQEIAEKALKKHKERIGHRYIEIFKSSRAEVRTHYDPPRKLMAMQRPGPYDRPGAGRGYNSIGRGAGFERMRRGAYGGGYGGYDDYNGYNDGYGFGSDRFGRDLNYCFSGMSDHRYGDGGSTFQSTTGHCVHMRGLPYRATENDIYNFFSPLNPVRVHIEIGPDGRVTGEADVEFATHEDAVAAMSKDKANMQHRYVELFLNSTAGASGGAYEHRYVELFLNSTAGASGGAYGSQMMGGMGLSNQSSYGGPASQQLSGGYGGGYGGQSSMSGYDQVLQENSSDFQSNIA
UniProt Q00839, whole entry, looked up: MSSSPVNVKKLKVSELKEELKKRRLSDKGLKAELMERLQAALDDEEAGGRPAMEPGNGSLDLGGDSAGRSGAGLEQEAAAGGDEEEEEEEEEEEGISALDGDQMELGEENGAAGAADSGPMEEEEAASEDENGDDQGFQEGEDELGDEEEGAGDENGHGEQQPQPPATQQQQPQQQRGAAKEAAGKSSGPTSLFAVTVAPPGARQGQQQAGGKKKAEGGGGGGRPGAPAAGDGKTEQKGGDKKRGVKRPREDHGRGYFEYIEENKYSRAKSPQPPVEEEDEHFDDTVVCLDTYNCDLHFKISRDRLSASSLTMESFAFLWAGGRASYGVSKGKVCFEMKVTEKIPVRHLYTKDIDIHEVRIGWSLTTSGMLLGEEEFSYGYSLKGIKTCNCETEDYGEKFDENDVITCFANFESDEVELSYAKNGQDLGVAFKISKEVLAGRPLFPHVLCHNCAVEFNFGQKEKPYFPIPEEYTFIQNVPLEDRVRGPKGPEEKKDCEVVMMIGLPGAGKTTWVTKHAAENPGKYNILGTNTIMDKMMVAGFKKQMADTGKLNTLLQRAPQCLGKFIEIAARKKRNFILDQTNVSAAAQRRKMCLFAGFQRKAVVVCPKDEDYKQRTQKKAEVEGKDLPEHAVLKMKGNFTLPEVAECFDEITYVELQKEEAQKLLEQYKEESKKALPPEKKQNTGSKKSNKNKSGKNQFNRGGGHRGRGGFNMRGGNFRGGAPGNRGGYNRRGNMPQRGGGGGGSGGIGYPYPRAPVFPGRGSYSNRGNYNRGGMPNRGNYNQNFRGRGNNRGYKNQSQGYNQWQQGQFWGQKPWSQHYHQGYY
UniProt P00492: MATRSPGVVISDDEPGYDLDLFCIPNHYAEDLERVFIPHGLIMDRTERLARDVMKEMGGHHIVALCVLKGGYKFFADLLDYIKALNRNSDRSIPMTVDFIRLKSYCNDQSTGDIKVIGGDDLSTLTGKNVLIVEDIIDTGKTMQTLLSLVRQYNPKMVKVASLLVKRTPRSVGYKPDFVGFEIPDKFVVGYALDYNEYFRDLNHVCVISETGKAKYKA
UniProt P52597: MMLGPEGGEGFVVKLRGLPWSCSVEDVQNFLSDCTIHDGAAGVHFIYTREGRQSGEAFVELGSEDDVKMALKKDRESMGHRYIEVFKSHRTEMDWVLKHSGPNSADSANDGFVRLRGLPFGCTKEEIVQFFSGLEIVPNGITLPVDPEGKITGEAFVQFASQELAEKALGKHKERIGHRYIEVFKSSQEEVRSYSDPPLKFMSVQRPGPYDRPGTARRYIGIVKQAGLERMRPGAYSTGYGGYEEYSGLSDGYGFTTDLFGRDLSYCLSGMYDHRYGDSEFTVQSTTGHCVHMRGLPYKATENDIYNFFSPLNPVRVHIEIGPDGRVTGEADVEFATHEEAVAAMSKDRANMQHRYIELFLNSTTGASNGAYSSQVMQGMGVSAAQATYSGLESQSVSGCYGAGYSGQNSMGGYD

Compound: Cc1cc(ccc1-c1ccccc1)C(=O)N1CCCN(CC1)C(=O)CCl [compound 10]
Experiment: probe-labelled cysteine peptide fold change vs DMSO (competition) (log2 fold change); higher = less target engagement (more negative = stronger competition)
Settings: THP-1, incubation time: 4 h
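Note: competitive profiling in live THP-1 cells: cysteine peptides tagged with an iodoacetamide desthiobiotin (IA-DTB) probe, intensity after compound treatment relative to DMSO-treated cells.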

Row | Target | probe-labelled cysteine peptide fold change (10 µM) | probe-labelled cysteine peptide fold change (50 µM)
1 | HSPH1_Q92598_13_SVVGLDVGSQSCYIAVAR (UniProt Q92598) | -0.0126 | 0.151
2 | HSD17B10_Q99714_214_VCNFLASQVPFPSR (UniProt Q99714) | 0.102 | 0.0901
3 | HSPB11_Q9Y547_52_HPPENIIDGNPETFWTTTGMFPQEFIICFHK (UniProt Q9Y547) | 0.0782 | 0.167
4 | HSPG2_P98160_4389_AQAGANTRPCPS (UniProt P98160) | -0.652 | -0.318
5 | HSPA4L_O95757_417+421_TSFEDGSGECEVFCK (UniProt O95757) | -0.216 | -0.39
6 | HSPA8_P11142_603_VCNPIITK (UniProt P11142) | 0.0489 | 0.0629
7 | HNRNPK_P61978_184+185_LFQECCPHSTDRVVLIGGKPDR (UniProt P61978) | -0.234 | -1.28
8 | HSPA2_P54652_191_GCAGGEK (UniProt P54652) | -0.132 | -0.342
9 | HSPBP1_Q9NZL4_325_CQLLQQHEEYQEELEFCEK (UniProt Q9NZL4) | 0.048 | 0.0616
10 | HSPA4_P34932_34+38_CTPACISFGPK (UniProt P34932) | -0.00552 | -0.423
11 | HNRNPH2_P55795_22_GLPWSCSADEVMR (UniProt P55795) | 0.118 | 0.249
12 | HUWE1_Q7Z6Z7_1832_HIIEDPCTLR (UniProt Q7Z6Z7) | -0.188 | -0.295
13 | HSPH1_Q92598_245_LVEHFCAEFK (UniProt Q92598) | 0.0542 | 0.207
14 | HSD17B7_P56937_32_LLAEDDELHLCLACR (UniProt P56937) | 0.0942 | 0.0496
15 | HPS3_Q969F9_398_CSAAAAREEDPYMDTTLK (UniProt Q969F9) | -0.0978 | -0.368
16 | HSD17B4_P51659_455_ELICHNQFSLFLVGSGGFGGKR (UniProt P51659) | -0.205 | 0.0547
17 | HSF1_Q00613_153_GKQECMDSK (UniProt Q00613) | -0.19 | -0.744
18 | HP1BP3_Q5SSJ5_412_GFSGTFQLCFPYYPSPGVLFPK (UniProt Q5SSJ5) | -0.25 | -0.0596
19 | HTATSF1_O43719_462_EAEEGCPEK (UniProt O43719) | -0.166 | -0.212

Row | Target | probe-labelled cysteine peptide fold change (10 µM) | probe-labelled cysteine peptide fold change (50 µM)
20 | HSD17B12_Q53GQ0_166_MININILSVCK (UniProt Q53GQ0) | -0.0236 | 0.243
21 | HSD17B11_Q8NBQ5_94_VHTFVVDCSNR (UniProt Q8NBQ5) | 0.131 | 0.129
22 | HSPA14_Q0VDF9_304_FELLCSPLFNK (UniProt Q0VDF9) | 0.0269 | 0.154
23 | HSP90AA1_P07900_597_LVTSPCCIVTSTYGWTANMER (UniProt P07900) | 0.0642 | 0.0456
24 | HNRNPUL2_Q1KMD3_452_TIEECEVILMVGLPGSGK (UniProt Q1KMD3) | 0.143 | 0.242
25 | HSP90AB1_P08238_521_KRGFEVVYMTEPIDEYCVQQLK (UniProt P08238) | -0.0905 | -0.276
26 | HNRNPUL1_Q9BUJ2_532_AIVICPTDEDLK (UniProt Q9BUJ2) | -0.122 | 0.0371
27 | HNRNPH1_P31943_290_YGDGGSTFQSTTGHCVHMR (UniProt P31943) | 0.0334 | -0.0583
28 | HSP90AA1_P07900_374_RVFIMDNCEELIPEYLNFIR (UniProt P07900) | -0.163 | -0.472
29 | HSPA4L_O95757_421_TSFEDGSGECEVFCK (UniProt O95757) | 0.0372 | -0.257
30 | HSPH1_Q92598_796_ELNNTCEPVVTQPKPK (UniProt Q92598) | 0.108 | -0.8
31 | HNRNPU_Q00839_607_AVVVCPKDEDYK (UniProt Q00839) | -0.128 | -0.4
32 | HPRT1_P00492_106_SYCNDQSTGDIK (UniProt P00492) | -0.203 | -0.311
33 | HSD17B12_Q53GQ0_215_TFVDFFSQCLHEEYR (UniProt Q53GQ0) | 0.029 | 0.278
34 | HNRNPF_P52597_290_YGDSEFTVQSTTGHCVHMR (UniProt P52597) | 0.1 | 0.188
35 | HSP90AA4P_Q58FG1_178_DLIMDNCEELIPEYLNFIR (UniProt Q58FG1) | 0.0768 | 0.401
36 | HOOK3_Q86VS8_199_CHELDMQVAALQEEK (UniProt Q86VS8) | 0.238 | 0.132
37 | HNRNPA0_Q13151_49_CFGFVTYSNVEEADAAMAASPHAVDGNTVELK (UniProt Q13151) | 0.356 | 0.056
38 | HNRNPF_P52597_267_DLSYCLSGMYDHR (UniProt P52597) | 0.0306 | -0.242
